How the values were obtained:
[1] = test system: mouse model of seizure; assay: Maximal electroshock seizure threshold (MEST) test in the mouse, Example 2; conditions: 2.5 mg/kg i.p., 30 min pre-treatment, vehicle CC50 20.0 mA
Procedure: The efficacy of CBD-C1 was tested in a mouse model of seizure, the maximal electroshock seizure threshold (MEST) test.
The maximal electroshock seizure threshold (MEST) test is widely utilized preclinically to evaluate pro- and anti-convulsant properties of molecules (Loscher et al., 1991).
In the MEST test the ability of a drug to alter the seizure threshold current required to induce hind limb tonic extensor convulsions is measured according to an “up and down” method of shock titration (Kimball et al., 1957). An increase in seizure threshold is indicative of anti-convulsant effect.
Naïve mice were acclimatised to the procedure room in their home cages, with food and water available ad libitum.
Animals were dosed i.p. according to dose group.
The vehicle (10 ml/kg i.p. 60 min pre-treatment time) was 1:1:18 vehicle 5% ethanol, 5% kolliphor EL, 90% saline. […]
Mice were individually assessed for the production of a tonic hind limb extensor seizure using a Hugo Sachs Electronik stimulator, which delivered an adjustable constant current (1-300 mA) of 0.1 s duration via corneal electrodes. […]
Induction of seizure is measured as an all-or-nothing effect scored as either present (+) or absent (0) for each animal. […]
Data was analysed by comparing treated groups with the appropriate vehicle control using Fisher's Exact Probability tests.

[2] = test system: mouse model of generalised seizure; assay: Maximal electroshock seizure threshold (MEST) test in the mouse, Example 3; conditions: 2.5 mg/kg i.p., 30 min pre-treatment, vehicle CC50 22.3 mA
Procedure: The efficacy of CBD-C1 was tested in a mouse model of generalised seizure, the maximal electroshock seizure threshold (M EST) test, as in Example 2.
Naïve mice were acclimatised to the procedure room in their home cages for up to 7 days, with food and water available ad libitum.
All animals were weighed at the beginning of the study and randomly assigned to treatment groups based on a mean distribution of body weight across groups.
The first animal within a treatment group was given a shock at the expected or estimated CC50 current. For subsequent animals, the current was lowered or raised depending on the convulsions outcome from the preceding animal.
Data generated from each treatment group were used to calculate the CC50±SEM values for the treatment group.
Vehicle: (5% ethanol, 5% solutol, 90% Saline) was prepared as follows: 2 mL of ethanol, 2 mL of solutol were warmed to 60° C., in 36 mL of saline (1:1:18).
The test compound, CBD-C1 was prepared according to the method described in Example 1. […]
CBD-C1 effects were also calculated as percentage change in CC50 from the vehicle control group.
Significant difference between drug-treated animals and controls were assessed according to Litchfield and Wilcoxon (1949).

## CN1C(=O)CN=C(c2ccccc2)c2cc(Cl)ccc21 [Diazepam, diazepam, reference compound]
[1]
  CC50 +/- SEM: 33.5 +/− 4.7 mA
[1]; listed as diazepam
  CC50 +/- SEM: 33.5 mA
[2]
  CC50 ± SEM: 77.5 ± 0.4 mA
[2]; listed as diazepam
  CC50 ± SEM: 77.5 mA

— patent US12396963B2, “Cannabidiol-type cannabinoid compound” (JAZZ PHARMACEUTICALS RESEARCH UK LIMITED, priority 2019, dated 2025)
